According to US20080014218A1, “USE OF TIGHT JUNCTION AGONISTS TO […] DELIVERY OF THERAPEUTIC AGENTS” (ALBA THERAPEUTICS CORP., priority 2006, published 2008):
Part of at least one peptide drawing is inferred or uncertain, most often the ends. Where no end group is shown, it is not given here.

How the values were obtained:
[1] = tested on: EpiAirway™ inserts (normal Type 2 human tracheal/bronchial epithelial cells); experiment: Transepithelial electrical resistance (TEER) across EpiAirway inserts; type: cell-based
[2] = tested on: EpiAirway™ cells; experiment: Apical to basolateral flux of 4 kDa FITC-dextran across EpiAirway cells, continuous flow system; type: cell-based, human

FCIGRL [FCIGRL] was tested, and the “effect on TEER as compared to the DPBS control” value ([1]; 1 μg/mL agonist, apical side) was “time dependent decrease in TEER”, the “recovery of TEER after removing agonist solution and a single wash” value ([1]; 25 min monitored, concentrations other than 0.01 μg/mL) was “did not result in significant recovery of TEER” and the “time point of maximal decrease in TEER” value ([1]; all concentrations) was 1 min. For the same substance, the “effect on TEER” value ([1]; all concentrations tested (up to 10 μg/mL), TEER at 0-30 min) was “decrease in TEER at all concentrations tested”, the “4 kDa FITC-dextran flux as compared to the DPBS control” value ([2]; 0.3 μg/mL agonist, first experiment) was “increased 4 kDa FITC-dextran flux” and the “time for increased FITC-dextran flux to return to levels similar to DPBS” value ([2]; 0.3 μg/ml agonist, first experiment) was no more than 20 min. The “4 kDa FITC-dextran flux as compared to the DPBS control” value ([2]; 10 μg/mL agonist, first experiment) was “not at the 10 μg/mL concentration”, the “time for FITC-dextran flux to return to levels comparable to DPBS” value ([2]; repeat experiment) was “approximately 20 minutes” and the “dose dependence of FITC-dextran flux” value ([2]; repeat experiment, 0.3 vs 10 μg/mL) was “greater flux observed at the 10 μg/mL than at the 0.3 μg/mL dose”.
